Square brackets hold non-standard residues; d marks the D form. Ends that are not written are not given here. * marks the point of attachment. Arg(NO2) = N=C(NCCC[C@H](N)C(=O)O)N[N+](=O)[O-]; Cbz = O=C(OCc1ccccc1)*; Boc = CC(C)(C)OC(=O)*; NHNH2 = NN*
Assay: general procedure: solution-phase peptide synthesis; BOP; active esters (ONp, ONSu, OTCP, ONb) with HOBT; NEM
Conditions: for purity (crude or final not stated) / crude HPLC purity: HPLC (EPP)

Question: Which step yield (coupling step) does the source give for Boc-Arg(HCl)-Lys(Z)-Val-Leu-Gly-OCH3 here?
Answer: 78.7%

Question: With “Boc-Ile-Phe-Thr-Asn-Ser-Tyr-Arg-Lys(Z)-Val-Leu-Gly-Gln-Leu-Ser-Ala-Arg(MTS)-Lys(Z)-Leu-Leu-Gln-Asp(0Bzl)-Ile-Met-Ser-Arg-Gln-Gln-Gly-Glu(0Bzl)-Ser-Asn-Gln-Glu(0Bzl)-Arg-Gly-Ala-Arg-Ala-Arg-Leu-NH2, HCl” as the substance, how does the step yield (coupling step) read?
Answer: 90%

Question: With Boc-Leu-Gln-Asp(0Bzl)-Ile-Met-NH-NH2 as the substance, how does the step yield (late stage modification step) read?
Answer: 78%

Question: Which step yield (late stage modification step) does the source give for Boc-SRQQG-OMe here?
Answer: 97.8%

Question: With “Boc-Glu(0Bzl)-Ser-Asn-Gln-Glu(0Bzl)-Arg-Gly-Ala-Arg-Ala-Arg-Leu-NH2, HCl” as the substance, how does the step yield (coupling step) read?
Answer: 90%

Question: For Boc-FTNS-OMe, which step yield (coupling step) is on record?
Answer: 93.5%

Question: With “Boc-Arg(MTS)-Lys(Z)-Leu-Leu-Gln-Asp(0Bzl)-Ile-Met-Ser-Arg-Gln-Gln-Gly-Glu(0Bzl)-Ser-Asn-Gln-Glu(0Bzl)-Arg-Gly-Ala-Arg-Ala-Arg-Leu, NH2, HCl” as the substance, how does the step yield (coupling step) read?
Answer: 80.4%

Question: Which “purity (crude or final not stated)” value (coupling step) does the source give for Boc-QLSA-OMe here?
Answer: EPP=91%

Question: With “H-Tyr-Arg-Lys(Z)-Val-Leu-Gly-Gln-Leu-Ser-Arg-OCH3, HCl, TFA” as the substance, how does the step yield (late stage modification step) read?
Answer: 100%

Question: With “Boc-Leu-Gln-Asp(0Bzl)-Ile-Met-NH-NH-Troc” as the substance, how does the step yield (coupling step) read?
Answer: 77%

Question: For “H-Ile-Phe-Thr-Asn-Ser-Tyr-Arg-Lys(Z)-Val-Leu-Gly-Gln-Leu-Ser-Ala-Arg(MTS)- Lys(Z)-Leu-Leu-Gln-Asp(0Bzl)-Ile-Met-Ser-Arg-Gln-Gln-Gly-Glu(0Bzl)-Ser-Asn- Gln-Glu(0Bzl)-Arg-Gly-Ala-Arg-Ala-Arg-Leu-NH2, HCl, TFA.”, which step yield (late stage modification step) is on record?
Answer: 100%

Question: With Boc-S[Arg(NO2)]QQG-OMe as the substance, how does the step yield (coupling step, over 4 steps) read?
Answer: 94.2%

Question: What does the source list for “Boc-Ile-Phe-Thr-Asn-Ser-Tyr-Arg-Lys(Z)-Val-Leu-Gly-Gln-Leu-Ser-Ala-OCH3, HCl”?
Answer: step yield (coupling step): 86%; crude HPLC purity (coupling step): EPP: 90%; step yield (coupling step, overall): 95%

Question: With Boc-IFTNS-OMe as the substance, how does the step yield (coupling step) read?
Answer: 85.9%

Question: For “Boc-Gln-Glu(0Bzl)Arg-Gly-Ala-Arg-Ala-Arg-Leu-NH2, HCl”, which step yield (coupling step) is on record?
Answer: 87%

Question: With “Boc-Tyr-Arg(Z)-Val-Leu-Gly-Gln-Leu-Ser-Ala-OCH3, HCl” as the substance, how does the step yield (coupling step) read?
Answer: 90%

Question: And the “crude HPLC purity” value (coupling step)?
Answer: EPP: 92%

Question: With Boc-IFTNS-NHNH2 as the substance, how does the step yield (late stage modification step) read?
Answer: 78.8%

Question: Which step yield (late stage modification step) does the source give for TFA, H-Phe-Thr-Asn-Ser-OMe here?
Answer: 48.5%

Question: With Boc-Gln-Glu(0Bzl)-Arg(HCl)-Gly-OH as the substance, how does the step yield (coupling step) read?
Answer: 94.9%

Question: And the “purity (crude or final not stated)” value (coupling step)?
Answer: EPP=96.5%

Question: Which step yield (coupling step) does the source give for Cbz-A[Arg(NO2)]A[Arg(NO2)]L-NH2 here?
Answer: 76%

Question: For Boc-K(Cbz)VLG-OMe, which step yield (coupling step) is on record?
Answer: 86%

Question: Which step yield (late stage modification step) does the source give for “H-Leu-Gln-Asp(0Bzl)-Ile-Met-Ser-Arg-Glu-Gln-Gly-Glu(0Bzl)-Ser-Asn-Gln-Glu(0Bzl)-Arg-Gly-Ala-Arg-Ala-Arg-Leu-NH2, TFA, HCl” here?
Answer: 96.1%

Question: For “Boc-Tyr-Arg(HCl)-Lys(Z)-Val-Leu-Gly-OCH3”, which step yield (coupling step) is on record?
Answer: 96%

Question: And the “purity (crude or final not stated)” value (coupling step)?
Answer: 93.81% EPP

Question: With “Boc-Leu-Gln-Asp(0Bzl)-Ile-Met-Ser-Arg-Gln-Gln-Gly-Glu(0Bzl)-Ser-Asn-Gln-Glu(0Bzl)-Arg-Gly-Ala-Arg-Ala-Arg-Leu-NH2, HCl” as the substance, how does the step yield (coupling step) read?
Answer: 87.16%

Question: For Boc-Tyr-Arg(Hcl)-Lys(Z)-Val-Leu-Gly-OH, which step yield (late stage modification step) is on record?
Answer: 74.7%

Question: What about the “purity (crude or final not stated)” value (late stage modification step) of the same substance?
Answer: HPLC-EPP 91.52%

Question: Which step yield (late stage modification step) does the source give for TFA H-Lys(Z)-Val-Leu-Gly-OCH3 here?
Answer: 94.7%

Question: Which step yield (coupling step) does the source give for Boc-Gln-Asp(0Bzl)-Ile-Met-NH-NH-Troc here?
Answer: 80%

Question: For [Arg(NO2)]A[Arg(NO2)]L-NH2, which step yield (coupling step) is on record?
Answer: 85%

Source: patent US4797469 (dated 1989)
